The target of the experiment is T1, calmodulin-streptavidin-tagged FOXL2 (human) (UniProt P58012).
T1 sequence: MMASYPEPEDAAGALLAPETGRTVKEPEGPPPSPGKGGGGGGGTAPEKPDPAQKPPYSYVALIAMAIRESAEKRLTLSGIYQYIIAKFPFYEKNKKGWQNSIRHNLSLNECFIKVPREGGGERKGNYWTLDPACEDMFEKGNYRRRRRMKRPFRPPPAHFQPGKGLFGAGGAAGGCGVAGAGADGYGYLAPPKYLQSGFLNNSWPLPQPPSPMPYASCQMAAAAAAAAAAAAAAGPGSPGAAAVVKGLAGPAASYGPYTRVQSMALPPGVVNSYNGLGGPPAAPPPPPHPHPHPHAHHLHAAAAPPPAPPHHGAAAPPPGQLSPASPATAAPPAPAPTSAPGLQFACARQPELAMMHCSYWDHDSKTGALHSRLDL
The experiment can be described thus: affinity purification with mass spectrometry; tandem affinity purification (streptavidin and calmodulin) of nuclear proteins of 293T cells transfected with FOXL2-NTAP plasmid or empty vector; gel bands analysed by LC-MS/MS.

Chains of the proteins cited; added tags and fusions are not shown.
UniProt P13010: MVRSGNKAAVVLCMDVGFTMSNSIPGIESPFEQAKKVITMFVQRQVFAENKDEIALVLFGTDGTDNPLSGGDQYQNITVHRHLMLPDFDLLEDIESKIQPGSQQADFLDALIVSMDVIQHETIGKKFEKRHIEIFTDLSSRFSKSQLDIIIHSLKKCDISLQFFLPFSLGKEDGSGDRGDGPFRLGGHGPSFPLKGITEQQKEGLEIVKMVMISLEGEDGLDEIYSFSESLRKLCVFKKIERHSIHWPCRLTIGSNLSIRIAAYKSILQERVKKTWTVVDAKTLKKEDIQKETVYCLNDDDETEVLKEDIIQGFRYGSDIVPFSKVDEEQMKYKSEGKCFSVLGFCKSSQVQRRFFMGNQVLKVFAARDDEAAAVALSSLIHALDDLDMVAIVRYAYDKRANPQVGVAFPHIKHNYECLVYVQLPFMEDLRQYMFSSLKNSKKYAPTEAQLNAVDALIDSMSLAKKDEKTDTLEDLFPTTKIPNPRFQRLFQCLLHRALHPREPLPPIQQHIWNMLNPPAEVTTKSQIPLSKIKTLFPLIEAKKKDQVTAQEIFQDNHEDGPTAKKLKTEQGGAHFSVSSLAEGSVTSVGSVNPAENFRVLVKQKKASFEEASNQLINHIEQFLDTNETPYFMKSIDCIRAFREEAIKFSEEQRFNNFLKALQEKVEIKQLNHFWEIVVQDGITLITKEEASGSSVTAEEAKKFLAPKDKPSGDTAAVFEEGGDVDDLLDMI

The text below walks through data of article PMC7181608.

Results are given in words; binding and its absence hold for the method and conditions named. Binding seen in cells or lysates may run through a third protein. Here binding means that the protein was enriched with, or labelled near, the bait; the list need not be complete. Tags and fused reporters may be left off the sequences shown.

For the substance “XRCC5 (Ku80), endogenous (from UniProt P13010 1-732)”, the binding entry is listed as “binds”.
